# About 7,500 (2.1%) of roughly 360,000 compounds were called active. The shares of active, inactive and inconclusive entries below differ from those in the screen. Calls come from the whole dose curve; as a rule, active = well fitted inhibition curve with a large enough effect; inconclusive = small, poorly fitted or top-dose-only effect, or effect the other way; inactive = flat fitted curve, though single readings scatter. A potency beside an inconclusive call is a rough fit, not a confirmed value.
# Experiment: Nrf2 qHTS screen for inhibitors; note: nearly all actives have a fitted effect of over 60% in size
# Conditions: A549 ARE-Fluc reporter, luciferase luminescence, 18-24 h; series mostly up to 46 µM
# Summary of the method: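 Concentration-response testing used A549 ARE_Fluc cells at 5000 cells/well. Following an 18-24 h compound incubation, viability was read by fluorescence (Ex 405/Em 525) and luciferase output by luminescence.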
# Potency is the fitted concentration of half-maximal effect.
row,SMILES,Potency
1,CCCCOc1ccc(S(=O)(=O)N2CCN(C)CC2)cc1,"inconclusive: 9.2 µM [activator, partial curve]"
2,CCOc1ccccc1NC(=O)N1CCN(C)c2ncccc21,"inconclusive: 8.2 µM [falling, partial curve]"
3,COc1ccc(C2Nc3ccccc3C(=O)N2Cc2cccc(Cl)c2)cc1COc1ccc(NC(C)=O)cc1 (configuration not stated),active: 23.1 µM
4,COCc1cccc(NC(=O)CCc2ccccc2)c1,"inconclusive: 14.6 µM [activator, partial curve, poor fit]"
5,O=C(CSc1nnnn1C1CCCC1)NCCc1ccccc1,"inconclusive: 25.9 µM [activator, single point]"
6,O=C(c1ccco1)N1CCN(c2ncnc3scc(-c4ccccc4)c23)CC1,"inconclusive: 23.1 µM [falling, single point]"
7,CC(C)(C)C(=O)Nc1ccc2c(c1)C(=O)C(=O)c1ccccc1-2,active: 20.6 µM
8,CCCCCCCCCCCCCCCC[n+]1ccc(C(N)=O)cc1,"inconclusive: 25.9 µM [falling, single point]"
9,COc1ccc(-c2c(-c3ccc(S(C)(=O)=O)cc3)sc3ccc(OC)cc23)cc1,"inconclusive: 3.66 µM [activator, partial curve, poor fit]"
10,O=c1oc(-c2ccco2)nc2sc3c(c12)CCCC3,"inconclusive: 29.1 µM [falling, partial curve, poor fit]"
11,CC1C(=O)C(C)C(c2cc(Cl)ccc2O)NC1c1cc(Cl)ccc1O (configuration not stated),"inconclusive: 29.1 µM [falling, single point]"
12,CCN(c1ccc(C)cc1)S(=O)(=O)c1nnc(NC(=O)C2CCCCC2)s1,"inconclusive: 29.1 µM [activator, single point]"
13,CCN(CC(=O)NCc1ccc(Cl)cc1)C(=O)CCc1ccccc1O,"inconclusive: 29.1 µM [falling, single point]"
14,COc1ccc(-n2nc(C(=O)NCC(=O)NCc3ccco3)c3ccccc3c2=O)c(OC)c1,"inconclusive: 6.51 µM [falling, single point]"
15,O=C(NCCCc1ccc(F)cc1)C1CCC(=O)N(CC2CCCCC2)C1 (configuration not stated),"inconclusive: 14.6 µM [falling, partial curve, poor fit]"
16,Cc1cccn2c(=O)c3cc(C#N)c(=NC(=O)c4cccs4)n(CC(C)C)c3nc12,"inconclusive: 11.6 µM [falling, partial curve, poor fit]"
17,Cc1noc(C)c1COc1ccc(C(=O)N(C)CCOc2ccccc2)cc1,"inconclusive: 20.6 µM [falling, single point]"
18,CCN(CC)c1ccc(/C=N/n2c(C)nc3ccccc3c2=O)cc1,"inconclusive: 18.4 µM [falling, single point]"
19,Cc1cc(C(=O)Nc2ccccc2C(=O)O)ccc1NC(=O)COc1cccc([N+](=O)[O-])c1,"inconclusive: 18.4 µM [activator, partial curve, poor fit]"
20,O=C(Cn1cc(COc2c(Br)cc(F)cc2Br)nn1)c1ccc(O)cc1,inactive
21,COc1ccc(NC(=O)N2CCc3c(sc4c3CCCC4)C2c2ccccc2OC)cc1 (configuration not stated),inactive
22,CC(C)(C)C(=O)Nc1nnc(CCc2ccccc2)s1,"inconclusive: 1.3 µM [activator, full curve]"
23,OCC1(Cc2ccc(Cl)cc2)CCN(CCCc2ccccc2)CC1,inactive

row,SMILES,Potency
1,COc1c(C)cccc1C(=O)Nc1ccc(N2CCOCC2)c(Cl)c1,"inconclusive: 0.731 µM [activator, full curve]"
2,CCC(=O)Nc1ccc(-c2ccc(N3CCCCC3)nn2)cc1,"inconclusive: 1.03 µM [activator, full curve, poor fit]"
3,Cc1nc(-c2cccc(NC(=O)c3ccco3)c2)cs1,inactive
4,Cc1c(NC(=O)c2ccc(Br)s2)c(=O)n(-c2ccccc2)n1C,"inconclusive: 23.1 µM [activator, single point]"
5,Cc1csc(SCc2nnc(-c3ccc(Cl)cc3)o2)n1,"inconclusive: 9.2 µM [activator, partial curve]"
6,O=C(Nc1cnn(Cc2c(Cl)cccc2Cl)c1)c1ccc([N+](=O)[O-])cc1,"inconclusive: 25.9 µM [falling, partial curve, poor fit]"
7,Nc1cc(S(=O)(=O)N2CCOCC2)ccc1Oc1cccc(Br)c1,active: 8.2 µM
8,N#CCSc1ncnc2c1cnn2CCO,"inconclusive: 23.1 µM [falling, partial curve]"
9,Cc1cc(C)c(C(CC(=O)c2cccs2)C(C#N)C#N)c(C)c1 (configuration not stated),inactive
10,O=C(NCc1ccc(Cl)cc1)c1ccc2ccccc2n1,"inconclusive: 10.3 µM [activator, partial curve]"
11,Cc1ccc(/C=C(/NC(=O)c2ccccc2)C(=O)NC(Cc2c[nH]c3ccccc23)C(=O)O)cc1 (configuration not stated),"inconclusive: 29.1 µM [falling, single point]"
12,CC1CN(S(=O)(=O)c2cccc(C(=O)N(CCc3ccccc3)Cc3ccccc3)c2)CC(C)O1 (configuration not stated),"inconclusive: 29.1 µM [falling, single point]"
13,O=C(CN1CCCCC1)NC(=O)NC1CCCC1,"inconclusive: 20.6 µM [activator, single point]"
14,CC(Oc1ccc(F)cc1)C(=O)Nc1nc(-c2ccc(F)cc2)ns1 (configuration not stated),"inconclusive: 29.1 µM [falling, single point]"
15,COc1ccc(-c2csc(NC(=O)CSc3ccc(Br)cc3)n2)c(OC)c1,"inconclusive: 9.2 µM [falling, partial curve, poor fit]"
16,Cc1ccc(-c2csc3ncnc(NCCN4CCOCC4)c23)cc1,"inconclusive: 9.2 µM [falling, partial curve]"
17,CCC(C)NC(=O)NC(=O)CSc1nnc(-c2ccccc2F)n1C1CC1 (configuration not stated),"inconclusive: 29.1 µM [falling, single point]"
18,COc1ccc2c(c1OC)C(=O)N(c1ccc(C)cc1)C2,"inconclusive: 5.8 µM [activator, partial curve]"
19,Cc1nn(C)c(Cl)c1CN1CCC(Oc2ccc(C(=O)N3CCCC3)cc2)CC1,"inconclusive: 32.6 µM [falling, partial curve, poor fit]"
20,COc1ccc(-n2c(C)c(C(C)=O)c3cc(OC(=O)c4ccc(C)cc4)ccc32)cc1,"inconclusive: 29.1 µM [falling, single point]"
21,Cc1cc2[nH]c3c(c[n+](C)c4ccccc34)c2cc1C,active: 5.8 µM
22,CCN(CC)S(=O)(=O)c1cc(NC(=O)C2CC(=O)N(Cc3ccccc3)C2)ccc1Cl (configuration not stated),active: 18.4 µM
23,CN1CCN(CCOC2Cc3ccccc3Sc3ccc(Cl)cc32)CC1 (configuration not stated),"inconclusive: 32.6 µM [falling, single point]"

# Filtered by structure, those above with a COOH group (two)
row,SMILES,Potency
19,Cc1cc(C(=O)Nc2ccccc2C(=O)O)ccc1NC(=O)COc1cccc([N+](=O)[O-])c1,"inconclusive: 18.4 µM [activator, partial curve, poor fit]"
11,Cc1ccc(/C=C(/NC(=O)c2ccccc2)C(=O)NC(Cc2c[nH]c3ccccc23)C(=O)O)cc1 (configuration not stated),"inconclusive: 29.1 µM [falling, single point]"

# Remaining list, next part

row,SMILES,Potency
1,Cc1cccc(C(=O)O/N=C(\N)c2ccccn2)c1,"inconclusive: 32.6 µM [falling, single point]"
2,CCC1=Nc2cc(C(=O)NCC(C)c3ccccc3)ccc2Sc2ccc(C)cc21 (configuration not stated),"inconclusive: 20.6 µM [falling, single point]"
3,O=C1CCC(C(=O)N2CCc3ccccc3C2)CN1CCCN1CCOCC1 (configuration not stated),inactive
4,Cc1ccc(Cn2cc(C(=O)c3ccc(F)cc3)c(=O)c3cc4c(cc32)OCO4)cc1,"inconclusive: 3.26 µM [activator, partial curve, poor fit]"
5,O=C(Cn1cnc2cc([N+](=O)[O-])ccc2c1=O)Nc1ccc(Br)cc1,"inconclusive: 2.59 µM [falling, full curve]"
6,CC(=O)c1c(NCc2ccccc2)nc(=O)n(-c2ccccc2)c1C,"inconclusive: 10.3 µM [activator, partial curve]"
7,CCN1C(=O)/C(=C\C=C2/C=CC=CN2CC)SC1=S,"inconclusive: 1.03 µM [activator, full curve, poor fit]"
8,Cn1cccc1/C=C1\CCC/C(=C\c2cccn2C)C1=O,"inconclusive: 16.4 µM [activator, partial curve]"
9,N#Cc1cc(-c2ccccc2)c[nH]c1=O,inactive
10,O=C(CSc1nc2ccccc2s1)N/N=C/c1ccc(C(=O)O)cc1,"inconclusive: 0.731 µM [falling, full curve, poor fit]"
11,COc1ccc(C(=O)Nc2ccc(C3CC3(Cl)Cl)cc2)cc1 (configuration not stated),"inconclusive: 18.4 µM [falling, single point]"
12,CCn1c(SCC(=O)Nc2cccc(OC)c2)nc2ccccc2c1=O,active: 8.2 µM
13,CC1(C)c2[nH]c3ccccc3c2C[C@H]2C(=O)N(Cc3ccc(F)cc3)C(=O)N21,"inconclusive: 23.1 µM [falling, partial curve, poor fit]"
14,CCc1nn(CC(=O)N2CCN(c3cc(C)ccc3C)CC2)c(=O)c2cc3occc3n12,inactive
15,COc1cc(/C=N/N2CCN(c3ccccc3OC)CC2)ccc1OC(C)=O,inactive
16,O=C(O)c1ccc(-n2c(/C=C/c3ccccc3)nc3ccccc3c2=O)cc1,"inconclusive: 11.6 µM [falling, partial curve, poor fit]"
17,CN(C(=O)CCN1CCCO1)C1CCCN(Cc2ccccc2F)C1 (configuration not stated),"inconclusive: 6.51 µM [falling, single point]"
18,O=C(CCC(=O)N1CCN(S(=O)(=O)c2ccc(Cl)cc2)CC1)Nc1cccc(Br)c1,inactive
19,CC(=O)Nc1cccc(NC(=O)c2ccc3c(c2)CCN3S(=O)(=O)c2ccccc2)c1,"inconclusive: 16.4 µM [falling, partial curve, poor fit]"
20,O=C1C2CC=C(Cl)CC2C(=O)N1CCc1c[nH]c2ccccc12 (configuration not stated),inactive
21,Cc1ccc(NC(=O)N2CCN3CCCCC3C2)cc1F (configuration not stated),"inconclusive: 11.6 µM [activator, partial curve]"
